From PubChem BioAssay AID1347423 (Functional Genomics Laboratory (NCATS/FGL), 2020) come the findings set out here.

The whole screen tested about 52,000 sequences, of which about 210 (0.4%) were called active.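 The calls were made as follows: active = gene whose silencing raises cell survival under the drug, median off-target-corrected z-score across its silencing RNAs 2 or more; inactive = the rest.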 Some of the results follow.

The test can be described thus: Resistance to Poly (ADP-Ribose) Polymerase inhibitor: Gene Identification via Genome-wide siRNA Screen. The conditions noted are these: mouse BRCA2 R2336H ES cells, olaparib, CellTiter-Glo viability; active compounds read high. Summed up: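 Mouse BRCA2 R2336H ES cells were reverse-transfected with siRNA (20 nM final), treated at 48 h with 500 nM olaparib, and read by CellTiter-Glo after 72 h. Scores: MAD-based z per siRNA, median per gene, seed off-target correction.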
A general note: Cellular ATP, detected with luciferase, serves as a proxy for viable cell number.
For GGCAAAUAGAGUGUGAACATT against Lgals12, the z-score is inactive: -1.27. With GGUGGAAGAUAUCAACUAGTT against Hip2 the figure was inactive: -0.168; with GGUUCUGGAUUUCAUCACGTT against Coasy, inactive: 0.299; with GCUUUCCUACGUUUGAAAUTT against Coro1c, inactive: 0.42. For GGGAAAAUGCGAUUCAUGATT against P2ry14, the z-score was inactive: 0.668. With GGACAUUUAUCCCAUGACATT against Coro2b the figure was inactive: 0.473; with CCCUCCUCAGUAUUGUACUTT against Dtx2, inactive: -0.518. With GCAAAAUUUGGCUUAAAGATT against Bank1 the figure was inactive: 0.438. With CCAUCUAUGGUAUGGAGCGTT against Abcg4, the z-score is inactive: 0.0082. In the case of GUGAACUCUUAUCGAUUACTT against V1rb8, the z-score is inactive: -0.0669. With GGUAACCAUCAAAUAUUCCTT against Usp52 the figure was inactive: -1.16. With “GGUGAACUUCAUCUUCUCUTT against 1200011O22Rik” the figure was inactive: -1.08; with UAGCCCAGCCUUCUUUUCCTT against Olfr658, inactive: -0.869; with GGAGAAACGGGUUUUUCAATT against Nfrkb, inactive: -0.0258. With CCAGAACCAGACGCGUAACTT against Cox6b2, the z-score was inactive: 0.0858.

Take GGAGGCAGAUGCUGGAAUCTT against Defb3: the z-score is inactive: 1.89. With GCUUGAAUUUCUGUGGAGGTT against Olfr1320 the figure was inactive: 1.13; with GCGGAUAAGAUUGAUGUAGTT against Degs, inactive: 0.886.

GGUCAAUAUCUUGAUGGUATT against V1rh6: the z-score is inactive: 0.875. With CGGCUCCAGGCAAAUAUGGTT against Ezh1 the figure was inactive: -1.78.

As to GGUGCGCUUCUAUGUUCCUTT against Ssrp1, the z-score was inactive: -1.33. With GGUAUGUCUAAGAAAACCATT against Pik4ca the figure was inactive: 2.28; with GCGGUGAACUACCAUUACCTT against BC051244, inactive: -1.06; with GCACAACAUAUGUUCCGCCTT against Pard3, inactive: 1.8. With GGGUCCUCAACACUUCAUATT against Gast the figure was inactive: -1.41. Then GGAGACUAUCCUCAUUAUUTT against Smarca4, with inactive: 0.674; and GGAAAGGUUUAAUCAUGAATT against Spred1, with inactive: 2.34; and GAACUCCAGGGUAUAGUCUTT against Prss3, with inactive: 0.536.

In the case of GGGAAAACACAGAAUGCUATT against Brp44l, the z-score is inactive: 0.518. With CCCUGACGAAGCCAUACAUTT against Bcor the figure was inactive: -1.33; with GGUCCACACCAGACAUCAATT against Wfdc5, inactive: -0.101.

As to GCUCCUAACUUUUGUCAUATT against Ppp3r2, the z-score is inactive: 0.272. With GGCCUUUUCACAACACUAUTT against BC003267 the figure was inactive: -0.413. Then CGUGUACAUGCUCUACUUUTT against Lypla3, with inactive: -0.338.

As for CCAUGAAAGUCACUUGUAUTT against Map2k6, the z-score was inactive: -0.733. As for CGGCCUACAACUACCCAACTT against Tekt3, the z-score is inactive: 0.415.

For the sequence “CGUGUUUUAUGUCCGUCAUTT against 9330154K18Rik”, the z-score is inactive: 1.22. Then “GGCUUCGAUGUGUUUAUGCTT against E130319B15Rik”, with inactive: 0.524; and GGAAUGCACAAAUUGAAAATT against Edn1, with inactive: 0.173; and GGAGUGCAGUCACUAUUUGTT against Il2rg, with inactive: -1.04. With “GGAGAGUGCUCAAUAAGACTT against 1300002C08Rik” the figure was inactive: -0.219. In the case of GGAAGAACUGGAAUGAUAUTT against Clecsf9, the z-score is inactive: -1.15.

Turning to “GGGCUGGAAUUCUUUUGUGTT against C130090K23Rik”, the z-score was inactive: -1.37. With “GGCUGGAAUCGAUCAUUUCTT against 3830417A13Rik” the figure was inactive: 1.28; with GGAGUUUGGAAUAAAAAGGTT against Flt3, inactive: 0.00317; with GGUUCACGUAUUAAAAACATT against Cryz, inactive: 0.252. With GGAUAGCAACAGAAAACGUTT against Lgi3 the figure was inactive: 0.453; with GGGCCUGAAGUAUGAAUGGTT against Lsm5, inactive: -2.17; with “GGUACUUUAAUGCUGAGGATT against 5730436H21Rik”, inactive: 0.03. Then AUAUCAGACUGACAUAGCATT against Obox5, with inactive: 1.84. As for GGGUUCUCAAGAAUUAAAGTT against Fbn1, the z-score is inactive: 1.02. With GCACGGAUUAAUGUGAUGATT against Ilk the figure was inactive: 0.147; with GGACGACAACGACAUCAUGTT against Sfrp2, inactive: 0.0688. As to GCCGUAUGGAGCCAUAGCUTT against Tes, the z-score is inactive: 0.932. For the sequence “GGAGGGAAAUUUGGGACUUTT against 0610039J04Rik”, the z-score was inactive: 1.35. With “GGAAGAUGAACAUCAAACATT against 9030617O03Rik” the figure was inactive: 1.22; with GCCGUUUUAAGAUACCGAUTT against Pde1c, inactive: 0.0937. For GCGUGUGAAGGCAACCAUUTT against Nos3, the z-score was inactive: -1. With GGACACAGGACUCUACACCTT against Psg16 the figure was inactive: 1.52; with GGAAAAAAAGCAAAUGAUCTT against Ndufa10, inactive: -1.06.

On to CGACUUGGGUUUUCACGGCTT against Arsb, for which the z-score is inactive: -0.362. Then GGUGGAGAUGGAAAUUGUCTT against Lmod2, with inactive: 0.358. As to “GGCCCAUCACUUACUAAAGTT against C730015A04Rik”, the z-score was inactive: 0.197. With GGACUGGAAAAUCGGCUUCTT against Scnn1a, the z-score was inactive: 0.357. With “GCUGUGGGAGGAUAGCAUGTT against 2310010G13Rik” the figure was inactive: 0.408; with “CCAUUGCACUGCGCCAACATT against 1700001O22Rik”, inactive: 0.642; with GGAUCUUCUGCCGUCUUGATT against Creb5, inactive: -2.86. Take CCUGAACAUAAAGUUUACUTT against Catsper4: the z-score is inactive: 1.86. With GGUACAAACUGUUACAUUUTT against Col12a1 the figure was inactive: 0.424; with “CCCGUCCCAUCCAUUAUUUTT against 2210018M03Rik”, inactive: 0.795. Regarding GGAUACCAUCCUAGGCCUGTT against Abhd9, the z-score is inactive: 0.644. Then GCGUGGAGAUAAAACCAAUTT against Phka2, with inactive: 0.416. Then GGCCGAUGCCAAAUUGGUATT against Olfm1, with inactive: -0.701; and GCAGGUACCCGGAUUGUCATT against Acr, with inactive: -0.233.

Consider GCCUUGGUCCUUAAAUAUATT against Slc7a2, for which the z-score is inactive: -0.206. Then GGAGGAUGAAGAGCUAUUATT against Smarca5, with inactive: -1.14; and AUUUACGGGAGAUCAGCUUTT against Olfr670, with inactive: 0.35; and “GGAAGUGUCUUUAAACUUCTT against 1700034J06Rik”, with inactive: 1.06. Then GCAAGCCAAGCACUUCAUUTT against Ppp1cc, with inactive: -1.29. On to GGAGUUCCUUUUUAAACACTT against Bnip3, for which the z-score was inactive: 0.219. For GGUACUACAAGCUAGCUGUTT against Scd4, the z-score was inactive: -0.037. “CCCAGCUUUCAUCCUUUGUTT against 2900064A13Rik”: the z-score was inactive: -0.755. With “GGAACCAGUGGCUUAGGAATT against 2810417H13Rik” the figure was inactive: -0.259; with “CCCACGAGCAAUAAAAUUGTT against D15Ertd735e”, inactive: 1.18; with GCUUCAUGCACGGUUCUAUTT against Cib2, inactive: -0.272. With GCUGUGUCGUUCAAAAGAATT against Cd80 the figure was inactive: -0.867.

On to GCCUGACUUCAGACUAUUUTT against Stxbp5l, for which the z-score was inactive: -2.58. With CCCUGAUCCUAGUGGAAAUTT against Kng1 the figure was inactive: 0.425; with GGUUGUACUGAGUAGCUGGTT against Slc7a4, inactive: -1.31; with GCAGCUAUUGAGCAUGGUGTT against Atp6v1g3, inactive: 0.463. Take GAGUGUGAAGAUAGACUUCTT against Myl4: the z-score was inactive: -0.222. With “GGAAAUUGUGAGAAGAACUTT against 2210009G21Rik” the figure was inactive: 0.689; with GCUCUUGACACUAGAGAUUTT against Ap1s3, inactive: 1.26; with GGUUGUUAAGCUGAAGCAATT against Prkacb, inactive: -2.29. In the case of “GGAUCUAUGAAACCACCGUTT against 2310016C16Rik”, the z-score was inactive: 2.54. With GGACAUUCAACCUGAAGUUTT against Hs6st3 the figure was inactive: 0.0587. Then GGAGAAAAGCUCUGUUCACTT against Olfr1195, with inactive: -0.596.

As to GGAGAAGGAACUGUGUGAGTT against Nfkbil1, the z-score is inactive: -0.452.

On to GCAGUUGACAUUUACUCUCTT against Gm67, for which the z-score is inactive: -0.284. Then GGCUUUCUUAUUUUCCUGUTT against BC003266, with inactive: 0.55; and GCAGCCUACUAACCGGAUUTT against Cited4, with inactive: -1.55. With GCAUGCUGACCACAAUAGATT against Arhgef11 the figure was inactive: 1.01; with “GGAUACUAGCAGUUGUUCGTT against D15Wsu169e”, inactive: -0.418. With GACUUCAUGGUCAAACUUATT against Rpl4 the figure was inactive: -0.414.
